PubChem BioAssay (NCATS)
This list was built around the results that the source calls inconclusive (neither active nor inactive); the mix of calls is not that of the screen. A potency beside an inconclusive call is a rough fit, not a confirmed value. Calls of active or inactive are those of the source. The call rests on the fitted dose curve; in most records, active means well fitted cell-killing curve with a large enough effect; inconclusive means small, poorly fitted or top-dose-only effect, or effect the other way; inactive means no such curve, though single readings can be large or run the other way.

Columns and labels:
[1] = Quantitative High-Throughput drug screen in 47 multiple myeloma cell lines against the NCATS MIPE library collection: L363_DSMZ cell viability assay (AID 1918984); conditions: L363 myeloma viability, CellTiter-Glo ATP luminescence, 48 h; viability (% of control): at 45.8 µM (top of the series); further: nearly all actives have a fitted effect of over 40% in size
In short: (§1)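 Readout: median RLU from CellTiter-Glo after 5 min at room temperature. Preceding step was 48 h drug treatment of 500 cells/well at 37 °C, 5% CO2, with DMSO-only and media-only control wells.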

[2] = Quantitative High-Throughput drug screen in 47 multiple myeloma cell lines against the NCATS MIPE library collection: KMS34_JCRB cell viability assay (AID 1918985); conditions: KMS34 myeloma viability, CellTiter-Glo ATP luminescence, 48 h; viability, percent of control: at 45.8 µM (top of the series); further: nearly all actives have a fitted effect of over 40% in size;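 on viability, percent of control: 100% = DMSO-only wells and 0% = media-only wells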
In short: as §1

[3] = Quantitative High-Throughput drug screen in 47 multiple myeloma cell lines against the NCATS MIPE library collection: OCIMY7_PLB cell viability assay (AID 1918987); conditions: OCI-MY7 myeloma viability, CellTiter-Glo ATP, 48 h; viability (% of DMSO): at 45.8 µM (top of the series); further: nearly all actives have a fitted effect of over 65% in size
In short: as §1

[4] = Quantitative High-Throughput drug screen in 47 multiple myeloma cell lines against the NCATS MIPE library collection: OCIMY5_PLB cell viability assay (AID 1918988); conditions: OCI-MY5 myeloma viability, ATP luminescence, 48 h; viability, % of control: at 45.8 µM (top of the series); further: nearly all actives have a fitted effect of over 65% in size;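 on viability, % of control: 100% = DMSO-treated wells and 0% = wells with media alone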
In short: as §1

[5] = Quantitative High-Throughput drug screen in 47 multiple myeloma cell lines against the NCATS MIPE library collection: SKMM1_PLB cell viability assay (AID 1919863); conditions: SKMM1 myeloma viability, CellTiter-Glo ATP, 48 h; viability: active compounds read low; further: nearly all actives have a fitted effect of over 35% in size
In short: as §1

[6] = Quantitative High-Throughput drug screen in 47 multiple myeloma cell lines against the NCATS MIPE library collection: XG6_PLB cell viability assay (AID 1919865); conditions: XG6 myeloma viability, CellTiter-Glo ATP luminescence, 48 h; viability (% of control): at 45.8 µM (top of the series); further: nearly all actives have a fitted effect of over 40% in size;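 on viability (% of control): 100% = DMSO-only wells and 0% = media-only wells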
In short: as §1

[7] = Quantitative High-Throughput drug screen in 47 multiple myeloma cell lines against the NCATS MIPE library collection: XG1_PLB cell viability assay (AID 1919866); conditions: CellTiter-Glo ATP, 48 h; series mostly up to 45.8 µM; further: nearly all actives have a fitted effect of over 35% in size
In short: as §1

[8] = Quantitative High-Throughput drug screen in 47 multiple myeloma cell lines against the NCATS MIPE library collection: VP6_DJ cell viability assay (AID 1919867); conditions: ATP luminescence, 48 h; viability (% of DMSO): at 45.8 µM (top of the series); further: nearly all actives have a fitted effect of over 40% in size;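 on viability (% of DMSO): 100% = DMSO-only wells and 0% = wells with media alone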
In short: as §1

[9] = Quantitative High-Throughput drug screen in 47 multiple myeloma cell lines against the NCATS MIPE library collection: U266_ATCC cell viability assay (AID 1919864); conditions: U266 myeloma viability, CellTiter-Glo ATP luminescence, 48 h; series mostly up to 45.8 µM; further: nearly all actives have a fitted effect of over 35% in size
In short: as §1
Potency means the concentration at half of the fitted maximal effect.

CN[C@@H]1[C@@H](O)[C@@H](O[C@@H]2[C@@H](O)[C@H](O[C@H]3O[C@H](CN)[C@@H](O)[C@H](O)[C@@H]3O)[C@@H](N)C[C@@H]2NC(=O)[C@@H](O)CN)OC[C@]1(C)O
inconclusive: Potency [1] 0.0118 µM [cytotoxic, full curve, poor fit] | Potency [2] 0.0021 µM [cytotoxic, full curve, poor fit] | Potency [4] 0.0019 µM [rising, full curve, poor fit] | Potency [5] 0.001 µM
inactive: Potency [3] | Potency [6] | Potency [7] | Potency [8]

CC(C)(C)OC(=O)N[C@H]1CCCCCC=C[C@@H]2C[C@@]2(C(=O)NS(=O)(=O)C2CC2)NC(=O)[C@@H]2C[C@@H](OC(=O)N3Cc4cccc(F)c4C3)CN2C1=O
inactive: Potency [1] | Potency [2] | viability [5] 123% | Potency [8]
inconclusive: Potency [3] 5.9 µM [rising, partial curve, poor fit] | Potency [4] 0.0013 µM [cytotoxic, full curve, poor fit] | Potency [7] 3.72 µM [cytotoxic, partial curve, poor fit]

O=c1ccc2ccc(O)c(O)c2o1
active: Potency [3] 8.33 µM
inconclusive: Potency [1] 20.9 µM [cytotoxic, partial curve, poor fit] | Potency [2] 13.2 µM [cytotoxic, partial curve, poor fit] | Potency [4] 26.4 µM [cytotoxic, partial curve, poor fit] | Potency [5] 13.2 µM [cytotoxic, partial curve, poor fit] | Potency [6] 1.87 µM [cytotoxic, full curve]

Cc1nccn1CC1CCc2c(c3ccccc3n2C)C1=O (centres undefined)
inactive: viability [5] 99.5% | Potency [8]
inconclusive: Potency [1] 0.0105 µM [cytotoxic, full curve, poor fit] | Potency [2] 2.35 µM [cytotoxic, full curve, poor fit] | Potency [3] 14.8 µM [cytotoxic, partial curve, poor fit] | Potency [4] 4.69 µM [cytotoxic, full curve, poor fit] | Potency [6] 2.96 µM [cytotoxic, partial curve, poor fit] | Potency [7] 7.43 µM [cytotoxic, partial curve, poor fit]

Fetched by structure from above (2):
CC(C)(C)OC(=O)N[C@H]1CCCCCC=C[C@@H]2C[C@@]2(C(=O)NS(=O)(=O)C2CC2)NC(=O)[C@@H]2C[C@@H](OC(=O)N3Cc4cccc(F)c4C3)CN2C1=O
inactive: Potency [1] | Potency [2] | viability [5] 123% | Potency [8]
inconclusive: Potency [3] 5.9 µM [rising, partial curve, poor fit] | Potency [4] 0.0013 µM [cytotoxic, full curve, poor fit] | Potency [7] 3.72 µM [cytotoxic, partial curve, poor fit]

Cc1nccn1CC1CCc2c(c3ccccc3n2C)C1=O (centres undefined)
inactive: viability [5] 99.5% | Potency [8]
inconclusive: Potency [1] 0.0105 µM [cytotoxic, full curve, poor fit] | Potency [2] 2.35 µM [cytotoxic, full curve, poor fit] | Potency [3] 14.8 µM [cytotoxic, partial curve, poor fit] | Potency [4] 4.69 µM [cytotoxic, full curve, poor fit] | Potency [6] 2.96 µM [cytotoxic, partial curve, poor fit] | Potency [7] 7.43 µM [cytotoxic, partial curve, poor fit]

Remaining list, next part

O=C(O)CCC1CCC(c2cc(F)ccc2F)(S(=O)(=O)c2ccc(Cl)cc2)CC1 (centres undefined)
inconclusive: Potency [2] 0.001 µM [cytotoxic] | Potency [5] 0.0166 µM [rising, full curve, poor fit] | Potency [6] 8.33 µM [cytotoxic, full curve]
inactive: Potency [4]
active: Potency [1] 16.6 µM | Potency [3] 2.64 µM | Potency [7] 9.35 µM | Potency [8] 4.69 µM

N#Cc1ccc(C(c2ccc(C#N)cc2)n2cncn2)cc1
inconclusive: Potency [1] 7.43 µM [cytotoxic, partial curve, poor fit] | Potency [2] 13.2 µM [cytotoxic, partial curve, poor fit] | Potency [3] 0.0066 µM [cytotoxic, full curve, poor fit] | Potency [4] 14.8 µM [cytotoxic, partial curve, poor fit] | Potency [6] 14.8 µM [cytotoxic, partial curve] | Potency [7] 11.8 µM [cytotoxic, partial curve]
active: Potency [9] 16.6 µM

Cc1cn([C@@H]2C[C@@H](O)[C@H](CO)O2)c(=O)[nH]c1=O
inactive: Potency [1] | Potency [4] | viability [5] 137% | Potency [8]
inconclusive: Potency [2] 0.0053 µM [cytotoxic, full curve, poor fit] | Potency [3] 16.6 µM [cytotoxic, partial curve, poor fit] | Potency [9] 0.0037 µM [rising, full curve, poor fit]

CC(C)(C)NCC(O)c1ccc(O)c(CO)c1 (centres undefined)
inactive: Potency [6]
active: Potency [4] 0.0148 µM
inconclusive: Potency [1] 0.372 µM [cytotoxic, full curve, poor fit] | Potency [2] 0.0017 µM [cytotoxic, full curve, poor fit] | Potency [3] 0.264 µM [rising, full curve, poor fit] | Potency [5] 11.8 µM [cytotoxic, single point] | Potency [8] 0.0059 µM [cytotoxic, full curve, poor fit]

Cc1cnc(C(=O)NCCc2ccc(S(=O)(=O)NC(=O)NC3CCCCC3)cc2)cn1
inconclusive: Potency [1] 10.5 µM [cytotoxic, partial curve, poor fit] | Potency [2] 0.0012 µM [rising, full curve, poor fit] | Potency [3] 16.6 µM [cytotoxic, partial curve, poor fit] | Potency [4] 16.6 µM [cytotoxic, partial curve, poor fit] | Potency [5] 1.66 µM [cytotoxic, partial curve, poor fit] | Potency [6] 26.4 µM [cytotoxic, single point]

O=C(C1CCCCC1)N1CC(=O)N2CCc3ccccc3C2C1 (centres undefined)
inactive: Potency [1] | Potency [2] | Potency [4] | Potency [8]
inconclusive: Potency [3] 0.0012 µM [rising, full curve, poor fit] | Potency [5] 0.0074 µM [rising, full curve, poor fit]

CC1COc2c(N3CCN(C)CC3)c(F)cc3c(=O)c(C(=O)O)cn1c23 (centres undefined)
inconclusive: Potency [1] 0.469 µM [cytotoxic, full curve, poor fit] | Potency [4] 0.118 µM [rising, full curve, poor fit] | Potency [6] 3.32 µM [cytotoxic, full curve, poor fit]
inactive: Potency [2] | Potency [3] | Potency [9] | Potency [8]

COc1cc(C(C)C)c(Oc2cnc(NC(CO)CO)nc2N)cc1I
inactive: viability [5] 122% | Potency [7]
inconclusive: Potency [1] 20.9 µM [cytotoxic, partial curve, poor fit] | Potency [2] 0.0935 µM [rising, full curve, poor fit] | Potency [3] 0.526 µM [rising, full curve, poor fit] | Potency [6] 20.9 µM [cytotoxic, partial curve, poor fit] | Potency [8] 0.332 µM [cytotoxic, full curve, poor fit]
active: Potency [4] 1.48 µM

NC(=O)c1nnn(Cc2cc(Cl)c(C(=O)c3ccc(Cl)cc3)c(Cl)c2)c1N
active: Potency [4] 26.4 µM | Potency [8] 20.9 µM
inactive: Potency [1]
inconclusive: Potency [2] 37.2 µM [cytotoxic, partial curve, poor fit] | Potency [3] 14.8 µM [cytotoxic, partial curve, poor fit] | Potency [5] 26.4 µM [cytotoxic, partial curve, poor fit]

NC[C@@H]1O[C@@H](O[C@H]2[C@@H](O)[C@H](O[C@@H]3[C@@H](O)[C@@H](N)C[C@H](N)[C@H]3O[C@H]3O[C@H](CN)[C@@H](O)[C@@H](O)[C@H]3N)O[C@H]2CO)[C@H](N)[C@@H](O)[C@@H]1O
inconclusive: Potency [3] 7.43 µM [rising, partial curve, poor fit] | Potency [8] 0.003 µM [rising, full curve, poor fit]
inactive: Potency [1] | Potency [2] | Potency [4] | Potency [9] | Potency [7]

COc1c(O)cc2c(c1O)[C@@H]1O[C@H](CO)[C@@H](O)[C@H](O)[C@H]1OC2=O
inactive: Potency [1] | Potency [3] | Potency [4] | Potency [9] | Potency [8]
inconclusive: Potency [2] 1.18 µM [cytotoxic, full curve, poor fit] | Potency [6] 18.7 µM [cytotoxic, partial curve, poor fit] | Potency [7] 23.5 µM [cytotoxic, single point]

O=C1c2ccccc2-c2n[nH]c3cccc1c23
inconclusive: Potency [1] 33.2 µM [cytotoxic, partial curve, poor fit] | Potency [2] 0.0037 µM [cytotoxic, full curve, poor fit] | Potency [3] 16.6 µM [cytotoxic, partial curve, poor fit] | Potency [4] 33.2 µM [cytotoxic, partial curve, poor fit] | Potency [5] 0.296 µM [rising, partial curve] | Potency [6] 20.9 µM [cytotoxic, partial curve] | Potency [7] 20.9 µM [cytotoxic, single point] | Potency [8] 26.4 µM [cytotoxic, single point]
